From patent US6468729B2, “Silver halide photographic light-sensitive material” (Fuji Photo Film Co., Ltd., priority 2000, dated 2002)
Some results were stated once for a whole list of compounds, not compound by compound. For at least one compound, name, drawing or mass did not settle the structure.

Experiment: pKa measurement by titration (AT-210 device, neutralization middle point)
Format: physicochemical
Details: —NHSO2— dissociation group, 25° C., THF/H2O=6/4
Method: The measurement of the pKa value in the present invention will be described below. […] 20 mL of H2O were then added to completely dissolve the material. Subsequently, 0.25 mL of an aqueous 0.2 N hydrochloric acid solution was added, and the resultant solution was stirred. An aqueous 0.2 N NaOH solution was dropped into this solution, and the pKa value was obtained from the neutralization middle point. All pKa values in the present invention were obtained under the above measurement conditions.

Which pKa value does the source give for CCCCCCCCCCCCCCCCOc1ccc(NS(=O)(=O)c2cc(C(=O)N3CCOCC3)cc(C(=O)N3CCOCC3)c2)cc1S(=O)(=O)NC(C)c1n[nH]c2cc(C(C)(C)C)nn12 (stereo not drawn) [MC-46] here?
Its pKa value is “less than 12”.

With CCCCCCCCCCCCCCCCCCOc1ccc(NS(=O)(=O)c2cc(C(=O)OC3CCCCC3)cc(C(=O)OC3CCCCC3)c2)cc1S(=O)(=O)NC(C)c1n[nH]c2cc(C(C)(C)C)nn12 (stereo not drawn) [MC-58] as the molecule, how does the pKa value read?
Its pKa value is “less than 12”.

For CCCCCCCCC(CCCCCC)COc1ccc(NS(=O)(=O)c2ccc(Cl)cc2Cl)cc1S(=O)(=O)NC(C)c1n[nH]c2cc(C(C)(C)C)nn12 (stereo not drawn) [MC-20], which pKa value is on record?
Its pKa value is “less than 12”.
